Laboratory results reported in PubChem BioAssay AID651664 (NMMLSC, 2012).
In all, about 1,800 compounds went through this assay and fewer than 10 were called active.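 Rule for the calls: active = inhibition of granule release above a set limit; inactive = the rest.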 The list shows a part of the results.

Assay: inhibitors of lytic granule exocytosis, flow cytometry, TALL-104 cells, validation set (AID 651664)
Conditions: TALL-104 LAMP-1 externalization, at 15.2 µM, hits give high values, stimulated with thapsigargin and PMA

inhibition, inactive:
O=c1cc(-c2ccc(F)cc2)oc2ccccc12 -1.4%
CCOC(=O)CNC(=O)c1ccccc1 0.6%
Cc1ccc(-c2csc(C(C#N)=C3CCCC3)n2)cc1 -2.1%
Cc1oc(/C=N/NC(=O)CN(c2ccccc2Br)S(C)(=O)=O)cc1Br -0.6%
O=c1[nH]c2ccc(Cl)cc2c(-c2ccccc2)c1SC(=S)N1CCOCC1 2.4%
CCOC(=O)N1CCC(NC(=O)CCC(=O)N2CCOc3ccc(C)cc32)CC1 -0.5%
COc1cc(CNCCN2CCOCC2)ccc1OCc1ccc(Cl)cc1Cl 3.4%
O=C(O)CSc1ncnc2c1oc1ccccc12 1.1%
CCSc1nnc(NC(=O)NC(CC)(C(F)(F)F)C(F)(F)F)s1 6.9%
Oc1ccccc1CNc1ccc(Br)cn1 -2.1%
COc1cccc(N2CCN(CC(=O)c3c[nH]c4ccc(OC)cc34)CC2C)c1 (centres undefined) -2.4%
Cc1cc(-n2[nH]c(C)c(C)c2=O)nc(-c2ccccc2O)n1 2.8%
Nc1nc(CSc2nc3ccccc3s2)nc(N2CCCCC2)n1 3.2%
COc1cccc2c(=O)c(C/C=C(/C)Cl)c(C)[nH]c12 1.9%
Cc1ccc(OCCN2CCN(C(=O)CCC(=O)Nc3nnc(C(C)C)s3)CC2)cc1 1.7%
O=C(c1ccccc1)N1CCC(c2nc(-c3ccc(S(=O)(=O)N4CCOCC4)cc3)no2)CC1 0.2%
O=C(Cc1ccccc1)N/N=C/c1cccs1 2.6%
CNC(=S)N1CCN(c2c(F)cc3c(=O)c(C(=O)O)cn(C4CC4)c3c2OC)CC1C (centres undefined) 1%
CCOC(=O)N1CCN(S(=O)(=O)c2cc(Br)cnc2N)CC1 1.8%
CCCCN(CCCC)C(=S)N/N=C/c1c(C)[nH]n(-c2ccccc2)c1=O -0.4%
CS(=O)(=O)NCC(c1cccnc1)N1CCN(c2ccc(F)cc2)CC1 (centres undefined) 0.4%
c1ccc(CSc2ncnc3c2sc2nc(N4CCOCC4)c4c(c23)CCCC4)cc1 -3.3%
CCCCOc1ccccc1P(=O)(O)CP(=O)(c1ccccc1)c1ccccc1 -3.4%
COc1ccc(CN2CCOCC2)cc1 1.5%
Cc1ccc(CNC(=O)c2cccc(S(C)(=O)=O)c2)cc1 -2.2%
CCOC(=O)c1ccc(Oc2nc(SC)nc(N(C)C)n2)cc1 1.7%
O=C1CC(c2ccco2)CC(O)=C1C=NCCN1CCN(C2CC(=O)N(c3ccccc3)C2=O)CC1 (centres undefined) -2.2%
O=C(CCn1cccc1)NC1CCCc2ccccc21 (centres undefined) 1.9%
COc1ccc(-c2nc(NC(=O)Cn3ccc(C(F)(F)F)n3)sc2C)cc1 1.8%
Cc1cc(C)c(S(=O)(=O)NCc2cn3c(C)csc3n2)c(C)c1 -4.5%
CCn1c(C)nc2c1C(=O)c1ccccc1C2=O -1.5%
O=C(O)CN(Cc1ccco1)S(=O)(=O)c1ccccc1 -2.6%
Cc1cc(=O)[nH]c(-n2nc(C)cc2C)n1 -3.8%
CSc1nc(Oc2ccccc2)c2sccc2n1 -0.5%
COc1cccc(C(=O)Nc2nnc(-c3cccs3)s2)c1 -0.6%
COc1cc(C2C(C(C)=O)=C(O)C(=O)N2CCN(C)C)ccc1O (centres undefined) -3.3%
COc1ccc(N/N=C(/N=Nc2nc(C)cc(=O)[nH]2)c2ccccc2)cc1 3.7%
COc1cc2c(C(=O)N3CCN(c4ccccc4C)CC3)c(C)oc2cc1Br 2.5%
Cc1cc(/C=N/NC(=O)c2cccc([N+](=O)[O-])c2)c(C)n1-c1ccc(Cl)cc1Cl -5.4%
O=C(Nc1ccc2oc(-c3cccnc3)nc2c1)c1ccco1 2%
CCC(c1nnnn1CCOC)N(Cc1ccc(C)cc1)Cc1cc2cc(OC)ccc2[nH]c1=O (centres undefined) -1.1%
Cc1ccc(NC(=O)CN2C(=O)N/C(=C/c3ccco3)C2=O)cc1 1.7%
COC(=O)c1cc(OC)c(OCc2cc(C(=O)OC)oc2C)c(OC)c1 2.7%
OCCSc1nncn1/N=C/c1c[nH]c2ccccc12 -3.4%
CC(=O)N1CCN(S(=O)(=O)c2cccc(C(=O)NC3CCCc4ccccc43)c2)CC1 (centres undefined) 0%
CC(CN1CCCCC1)OC(=O)c1ccc(Cl)cc1Cl (centres undefined) -2.5%
Cc1cc(-c2csc(N)n2)c(C)n1CCC(C)C -0.5%
O=c1oc(-c2ccccc2NS(=O)(=O)c2ccccc2)nc2ccccc12 0.1%
CC1=C(C(=O)OC(C)C)C(c2ccco2)NC(=O)N1 (centres undefined) -1.9%
Cc1ccc(C2c3sc(=O)[nH]c3SC3C(=O)NC(=O)C32)cc1 (centres undefined) 0.7%
Nc1cc2ccccc2oc1=O 4.2%
CCNC(=O)NC(=O)C(C)Sc1nc2ccccc2n1CC(C)C (centres undefined) 0.8%
CN(C)/C=C1\N=C(c2cccs2)OC1=O -1.9%
CCOC(=O)C(CC)Sc1nc2c(c(=O)[nH]c(=O)n2C)n1CCc1ccccc1 (centres undefined) -2.9%
CC1(C)CC(=O)C2=C(C1)OC(/N=C/N1CCOCC1)=C(C#N)C2c1ccccc1 (centres undefined) -0.6%
N#CC1=C(S)N=C(N)C(c2nc(-c3ccccc3)cs2)C12CCCCC2 (centres undefined) -0.1%
O=C(Nc1nc(-c2cccc([N+](=O)[O-])c2)cs1)C(c1ccccc1)c1ccccc1 -0.3%
Cc1ccccc1-n1c(SCc2c(C)noc2C)nnc1-c1cccnc1 0.4%
Cc1ccc(NCc2cccnc2)cc1 3.2%
CCN1C(=O)/C(=C\N2CCN(c3ccccc3)CC2)SC1=S 2.5%
COC(=O)Cc1c(C)c2ccc(O)c(CN3CCCC(C)C3)c2oc1=O (centres undefined) -1.8%
C=C(Br)Cn1c(CCCC)nc2ccccc21 6.1%
Cc1cc(CN(C)C)c(O)c(C2(C)CCCCC2)c1 1%
Cc1ccc(SC(C)C(=O)NCc2cccnc2)cc1 (centres undefined) 23%
CCOc1ccc(Br)cc1C1C(C(=O)OC)=C(N)Oc2cc(N(C)C)ccc21 (centres undefined) 4.1%
CCCc1nnc(NC(=O)c2cc3ccccc3oc2=O)s1 0.8%
Cc1ccc(CNC(=O)CCNC(=O)c2ccco2)cc1 -3.1%
COc1cc(NC(=O)Nc2ccccc2)c(OC)cc1NC(=O)CN1CCCCC1 -0.7%
CCOC(=O)C1(P(=O)(c2ccc(Cl)cc2)c2ccc(Cl)cc2)CCC1 -0.1%
CC(C(=O)NCc1cccs1)n1cccc1 (centres undefined) -0.5%
CN(C)c1ncnc2c1NC1=C(S2)C(=NCCCC(=O)O)CC(C)(C)C1 0.8%
CCOc1ccc(-c2nc(CSCC(=O)NCc3ccco3)c(C)o2)cc1 1.6%
Cc1ccc2cc(COC(=O)C3CCCO3)c(=O)[nH]c2c1 (centres undefined) -2.9%
CNC(=O)c1sccc1S(=O)(=O)Cc1c(Cl)cccc1Cl -1%
CCOc1ccc(CNc2ccc(N3CCOCC3)c(C(=O)O)c2)cc1 1.2%
Cc1ccc(NC(=O)c2cc(S(=O)(=O)Nc3ccc(C)cc3)cs2)cc1 0.6%
CC1(C)CC(=O)c2cc(C(=O)NCc3ccco3)c(=O)n(-c3ccccc3)c2C1 3.8%
COCCN(C(=O)CN1CCCc2ccccc21)c1c(N)n(Cc2ccccc2)c(=O)[nH]c1=O 6.7%
COc1cc(OC)c(NC(=S)Nc2cccc(C(C)=O)c2)cc1Cl -3.9%
CCn1c2ccccc2c2cc(NC(=O)CSc3nnnn3-c3ccccc3)ccc21 4.2%
C/C=C/c1ccc(OCCCNCC(C)O)c(OC)c1 (centres undefined) -1.2%
Cc1cc(COc2ccccc2OCCN2CCN(C)CC2)no1 -0.2%
O=C(Nc1cccc(-c2cnc3ccccc3n2)c1)c1ccco1 -1.5%
CN(Cc1nc(-c2cccnc2)no1)S(=O)(=O)c1ccc(Br)cc1 6.2%
CN1CC(=O)NC1=NC(=O)c1ccc(Cl)c(S(=O)(=O)N2CCCCCC2)c1 -1.1%
Cc1c(C(=O)N2CCCCC2)nnn1-c1nonc1N -0.7%
CC1CC(C)CN(CC(=O)N2CCCc3c2c(=O)oc2ccc(OCc4ccccc4)cc32)C1 (centres undefined) -3%
COc1ccccc1Cn1nnc2c(=O)[nH]c(C3CCN(C(=O)c4ccc(F)cc4)CC3)nc21 -0.3%
COc1cccc(Nc2ncccc2C(=O)NCc2ccccc2)c1 2.3%
Clc1ccc(-c2nnnn2-c2ccc(Cl)c(Cl)c2)cc1Cl -0.4%
CCCn1c(NC(=O)c2ccccc2)nc2ccccc21 -3.6%
O=C1OC2CCC1(c1ccccc1)C2 (centres undefined) -2.8%
COc1ccc(C2NC(=O)c3sc(=S)n(-c4ccccc4)c3N2)cc1 (centres undefined) 0.2%
Cn1nc(-c2ccccc2)c(C(=O)Nc2ccc(Cl)cc2)c1Cl 3%
COc1ccc(-c2noc(CN(C(=O)c3ccc(OC(C)=O)cc3)C(C)C)n2)cc1OC -0.4%
CC(C)(C)Cc1nnc(NS(=O)(=O)Cc2ccccc2)s1 -1.1%
Cc1ccccc1S(=O)(=O)Cc1ccc(C(=O)N2CCN(c3ncccn3)CC2)o1 -1.8%
Cc1ccc(O)c(-c2cc(-c3ccccc3F)[nH]n2)c1 -0.7%
Cc1nn(-c2ccccc2)c2c1C(c1ccc(O)c(O)c1)N1C(=N2)C(Nc2ccccc2)=Nc2ccccc21 (centres undefined) -0.7%

4 neighbouring entries already listed:
inhibition, inactive:
Oc1ccccc1CNc1ccc(Br)cn1 -2.1%
COc1cccc(N2CCN(CC(=O)c3c[nH]c4ccc(OC)cc34)CC2C)c1 (centres undefined) -2.4%
Cc1cc(-n2[nH]c(C)c(C)c2=O)nc(-c2ccccc2O)n1 2.8%
Nc1nc(CSc2nc3ccccc3s2)nc(N2CCCCC2)n1 3.2%

Arranged by heavy-atom count (high to low): part of the list above.
inhibition, inactive:
CC(=O)N1CCN(S(=O)(=O)c2cccc(C(=O)NC3CCCc4ccccc43)c2)CC1 (centres undefined) 0%
O=C(Nc1nc(-c2cccc([N+](=O)[O-])c2)cs1)C(c1ccccc1)c1ccccc1 -0.3%
O=C(Nc1ccc2oc(-c3cccnc3)nc2c1)c1ccco1 2%
COc1cccc(C(=O)Nc2nnc(-c3cccs3)s2)c1 -0.6%
